The test system of this test is L1210 leukemia ip in BDF1 mice, survival T/C. In words: NCI In Vivo Anticancer Drug Screen. Data for tumor model L1210 Leukemia (intraperitoneal) in B6D2F1 (BDF1) mice. The following applies: T/C endpoint: mean survival time, higher T/C = longer survival.
Setting [1] is: dose: 400.0 mg/kg/injection, schedule: Q04DX003 (ip), vehicle: saline with Tween-80.
Where [2] appears, read: dose: 100.0 mg/kg/injection, schedule: Q01DX009 (ip), vehicle: saline with Tween-80.
Setting [3] is: dose: 400.0 mg/kg/injection, schedule: Q01DX009 (ip), vehicle: carboxymethylcellulose (CMC).
[4] abbreviates: dose: 400.0 mg/kg/injection, schedule: Q04DX003 (ip), vehicle: carboxymethylcellulose (CMC).
Where [5] appears, read: dose: 200.0 mg/kg/injection, schedule: Q01DX009 (ip), vehicle: saline with Tween-80.
Setting [6] is: dose: 300.0 mg/kg/injection, schedule: Q01DX001 (ip), vehicle: saline.
Where [7] appears, read: dose: 400.0 mg/kg/injection, schedule: Q04DX003 (ip), vehicle: saline.
The mark [8] stands for this setting: dose: 400.0 mg/kg/injection, schedule: Q01DX009 (ip), vehicle: Klucel (hydroxypropylcellulose) (HPC).
Setting [9] is: dose: 100.0 mg/kg/injection, schedule: Q01DX009 (ip), vehicle: Klucel (hydroxypropylcellulose) (HPC).

Among the data in PubChem BioAssay AID248 (DTP/NCI, 2004) are survivor count and T/C values, retold here.

The list shows only some results of the screen, not a fair sample: it is rich in T/C values a quarter to a half above the control, in often repeated tests (any T/C) and in doses without a T/C. Other doses and runs of a compound stand elsewhere. T/C: endpoint of the treated group in % of that of the vehicle group. Some entries give survivors of the animals treated and no T/C: the source holds a T/C of zero for them, seemingly a mark for toxic or unscored doses. Some survivor counts are full or nearly so, which does not show that the dose was tolerated: survival well below the control is almost never listed, so the zero probably covers shortened survival too. Survivors were counted at the toxicity check, usually on the fifth day, unless a day is given; later deaths do not show. Schedule codes are those of the source, taken here to give the interval after Q, in days (D) or hours (H), and the number of doses after X. Some entries were tested several times; the results are listed from low to high. Brackets with × give the number of equal values in this list. Some schedules carry Z or #; the key to these is not given. Some structures stand for samples that the source files as different forms (salt, stereo form or complex); doses refer to the form tested. Where survival is the endpoint, this PubChem deposit counts one and a half times the control or more as active, and values a quarter to a half above the control carry no call in these data; other NCI protocols may use other cut-offs.

For `CC(C)=CCC/C(C)=C/CN1C(=O)C=CC1=O`, the survivor count was 1 of 6 (dose: 50.0 mg/kg/injection, schedule: Q01DX009 (ip), vehicle: water); 0 of 6 (dose: 100.0 mg/kg/injection, schedule: Q04DX003 (ip), vehicle: water); 0 of 6 (dose: 200.0 mg/kg/injection, schedule: Q04DX003 (ip), vehicle: water); 0 of 6 (dose: 400.0 mg/kg/injection, schedule: Q04DX003 (ip), vehicle: water).

Take `CCCCCCOP1(=O)C=C(C)CC1` (stereo not drawn): under setting [1], the survivor count is on record as 2 of 6.

In the case of `CCOCc1c(COc2ccc(Br)cc2)n(C)c2ccccc12`, under setting [2], the survivor count is 3 of 3.

For `O=C(O)CCC(=O)Nc1ccccc1C(F)(F)F`, the survivor count under setting [2] is 6 of 6.

`CCCCCCC(=O)N(C(C)C)C(C)C`: the survivor count under setting [3] is 1 of 3 and the survivor count under setting [4] is reported as 5 of 6.

Consider `O=C(NCCF)NC1CCCCCCCCCCC1`, for which the survivor count is reported as 0 of 6 (dose: 75.0 mg/kg/injection, schedule: Q01DX001 (ip), vehicle: other); 1 of 6 (dose: 150.0 mg/kg/injection, schedule: Q01DX001 (ip), vehicle: other); 0 of 6 (dose: 300.0 mg/kg/injection, schedule: Q01DX001 (ip), vehicle: other).

Regarding `CSc1ccc(NC(=O)Nc2nccs2)cc1`, under “dose: 100.0 mg/kg/injection, schedule: Q04DX003 (ip), vehicle: saline sonified”, the survivor count is 6 of 6.

Regarding `CC(NC(=O)NCCCl)c1ccccc1` (stereo not drawn), the survivor count (dose: 200.0 mg/kg/injection, schedule: Q04DX003 (ip), vehicle: saline with Tween-80) is listed as 2 of 6 and the survivor count under setting [1] is 0 of 6 (2×).

For the molecule `C[CH2][Sn](/[CH]=C\CO)([CH2]C)[CH2]C`, the survivor count is, setting by setting: (dose: 3.12 mg/kg/injection, schedule: Q01DX009 (ip), vehicle: saline) 0 of 3; (dose: 6.25 mg/kg/injection, schedule: Q01DX009 (ip), vehicle: saline) 2 of 3; (dose: 12.5 mg/kg/injection, schedule: Q01DX009 (ip), vehicle: saline) 0 of 3; (dose: 50.0 mg/kg/injection, schedule: Q01DX009 (ip), vehicle: saline) 0 of 3; (dose: 100.0 mg/kg/injection, schedule: Q01DX009 (ip), vehicle: saline) 0 of 3; (dose: 200.0 mg/kg/injection, schedule: Q01DX009 (ip), vehicle: saline) 0 of 3.

`CC(C)CC(C)OC(C[N+](=O)[O-])C(Cl)(Cl)Cl` (stereo not drawn): under setting [5], the survivor count is listed as 6 of 6.

With `CC[n+]1ccc(Nc2ccc(NC(=O)c3ccc([N+](=O)[O-])cc3)cc2)cc1`, the survivor count reads like this: under setting [5], 6 of 6; (dose: 400.0 mg/kg/injection, schedule: Q01DX009 (ip), vehicle: saline with Tween-80) 0 of 6.

With `CCCC/C(=N\N=C(N)N)c1ccc(F)cc1`, the survivor count is recorded as 1 of 6 (dose: 60.0 mg/kg/injection, schedule: Q01DX Z (ip), vehicle: methylcellulose (MC)); 1 of 6 (dose: 60.0 mg/kg/injection, schedule: Q01DX Z (oral), vehicle: methylcellulose (MC)); 0 of 6 (dose: 120.0 mg/kg/injection, schedule: Q01DX Z (ip), vehicle: methylcellulose (MC)); 1 of 6 (dose: 120.0 mg/kg/injection, schedule: Q01DX Z (oral), vehicle: methylcellulose (MC)).

As for `CCCC[n+]1cccc(C#N)c1`, the survivor count under setting [6] is reported as 1 of 6.

Regarding `NC(=S)N/N=C/c1ccncc1`, the survivor count under setting [7] is recorded as 1 of 6.

As for `CCCCC1(C(C)C)C(=O)NC(=O)N(C)C1=O` (stereo not drawn), the survivor count under setting [6] is recorded as 3 of 6.

Regarding `NC(=S)N/N=C/C(=O)O`, the survivor count (dose: 50.0 mg/kg/injection, schedule: Q01DX001 (ip), vehicle: saline) was 4 of 4.

With `CCS(=O)(=O)/C=C/c1ccco1`, the survivor count is reported as 0 of 6 (dose: 50.0 mg/kg/injection, schedule: Q04DX003 (ip), vehicle: carboxymethylcellulose (CMC)); 0 of 6 (dose: 100.0 mg/kg/injection, schedule: Q04DX003 (ip), vehicle: carboxymethylcellulose (CMC)); 0 of 6 (dose: 200.0 mg/kg/injection, schedule: Q04DX003 (ip), vehicle: carboxymethylcellulose (CMC)); 0 of 6 under setting [4].

On to `CC(=O)c1ccc(Cl)c([N+](=O)[O-])c1`, for which the survivor count under setting [8] was 6 of 6.

For `OCCCN1CCN(CCCC2c3ccccc3Sc3ccc(Cl)cc32)CC1` (stereo not drawn), the survivor count is, setting by setting: (dose: 100.0 mg/kg/injection, schedule: Q04DX003 (ip), vehicle: saline) 3 of 4; (dose: 200.0 mg/kg/injection, schedule: Q04DX003 (ip), vehicle: saline) 0 of 4; under setting [7], 0 of 4.

Turning to `CCOc1cc2ccc3c4cc(OC)c(OC)cc4c[n+](C)c3c2cc1OCC`, the survivor count reads like this: (dose: 200.0 mg/kg/injection, schedule: Q04DX002 (ip), vehicle: saline with Tween-80) 2 of 3; (dose: 400.0 mg/kg/injection, schedule: Q04DX002 (ip), vehicle: saline with Tween-80) 1 of 3.

On to `CC(C)N1CNC(=O)C12CCN(CC1COc3ccccc3O1)CC2` (stereo not drawn), for which the survivor count under setting [1] was 1 of 6.

As for `CCOc1ccc(NC(=O)c2cc(C(=O)O)c(C(=O)Nc3ccc(OCC)cc3)cc2C(=O)O)cc1`, under “dose: 200.0 mg/kg/injection, schedule: Q04DX002 (ip), vehicle: Klucel (hydroxypropylcellulose) (HPC)”, the survivor count is given as 1 of 3.

`CCC(O)C[As](=O)(O)c1ccc(Cl)cc1` (stereo not drawn): the survivor count (dose: 3.13 mg/kg/injection, schedule: Q01DX009 (ip), vehicle: saline with Tween-80) is on record as 3 of 3; the survivor count (dose: 6.25 mg/kg/injection, schedule: Q01DX009 (ip), vehicle: saline with Tween-80) is 0 of 3 and 3 of 6; the survivor count (dose: 12.5 mg/kg/injection, schedule: Q01DX009 (ip), vehicle: saline with Tween-80) was 0 of 6; the survivor count (dose: 25.0 mg/kg/injection, schedule: Q01DX009 (ip), vehicle: saline with Tween-80) is 0 of 6.

As to `C=CC[P+](c1ccccc1)(c1ccccc1)c1ccccc1`, the survivor count is reported as 0 of 6 (dose: 25.0 mg/kg/injection, schedule: Q01DX009 (ip), vehicle: Klucel (hydroxypropylcellulose) (HPC)); 1 of 6 (dose: 40.0 mg/kg/injection, schedule: Q01DX001 (ip), vehicle: saline); 0 of 6 (dose: 50.0 mg/kg/injection, schedule: Q01DX009 (ip), vehicle: Klucel (hydroxypropylcellulose) (HPC)); 0 of 6 (dose: 80.0 mg/kg/injection, schedule: Q01DX001 (ip), vehicle: saline); 2 of 4 (dose: 100.0 mg/kg/injection, schedule: Q01DX001 (ip), vehicle: saline); 0 of 6 under setting [9]. The survivor count by setting is: (dose: 200.0 mg/kg/injection, schedule: Q01DX001 (ip), vehicle: saline) 0 of 4; (dose: 200.0 mg/kg/injection, schedule: Q01DX009 (ip), vehicle: Klucel (hydroxypropylcellulose) (HPC)) 0 of 6; (dose: 400.0 mg/kg/injection, schedule: Q01DX001 (ip), vehicle: saline) 0 of 4; under setting [8], 0 of 6.

Regarding `C1=CC23C4CCC2C2C4C4C(=C1)C3C2N1CCCCC41` (stereo not drawn), the survivor count by setting is: under setting [9], 1 of 6; (dose: 200.0 mg/kg/injection, schedule: Q04DX003 (ip), vehicle: Klucel (hydroxypropylcellulose) (HPC)) 1 of 6; (dose: 400.0 mg/kg/injection, schedule: Q04DX003 (ip), vehicle: Klucel (hydroxypropylcellulose) (HPC)) 0 of 6.

For `Nc1ccc(Cl)cc1-c1ccccc1`, the T/C (dose: 83.0 mg/kg/injection, schedule: Q01DX Z (ip), vehicle: saline) was 125 % of control.

As for `CSc1ccc(OC(=O)Nc2ccc(Cl)cc2)cc1C`, under setting [3], the survivor count is 3 of 3 and 6 of 6.
